# Reference: publication PMC5996148
# Protein sequences, listed by entry. Tags and fused reporters are not part of them. Lines headed by an entry give the natural chain unless they say otherwise; changes in a name come on top.
# UniProt Q8NEY1: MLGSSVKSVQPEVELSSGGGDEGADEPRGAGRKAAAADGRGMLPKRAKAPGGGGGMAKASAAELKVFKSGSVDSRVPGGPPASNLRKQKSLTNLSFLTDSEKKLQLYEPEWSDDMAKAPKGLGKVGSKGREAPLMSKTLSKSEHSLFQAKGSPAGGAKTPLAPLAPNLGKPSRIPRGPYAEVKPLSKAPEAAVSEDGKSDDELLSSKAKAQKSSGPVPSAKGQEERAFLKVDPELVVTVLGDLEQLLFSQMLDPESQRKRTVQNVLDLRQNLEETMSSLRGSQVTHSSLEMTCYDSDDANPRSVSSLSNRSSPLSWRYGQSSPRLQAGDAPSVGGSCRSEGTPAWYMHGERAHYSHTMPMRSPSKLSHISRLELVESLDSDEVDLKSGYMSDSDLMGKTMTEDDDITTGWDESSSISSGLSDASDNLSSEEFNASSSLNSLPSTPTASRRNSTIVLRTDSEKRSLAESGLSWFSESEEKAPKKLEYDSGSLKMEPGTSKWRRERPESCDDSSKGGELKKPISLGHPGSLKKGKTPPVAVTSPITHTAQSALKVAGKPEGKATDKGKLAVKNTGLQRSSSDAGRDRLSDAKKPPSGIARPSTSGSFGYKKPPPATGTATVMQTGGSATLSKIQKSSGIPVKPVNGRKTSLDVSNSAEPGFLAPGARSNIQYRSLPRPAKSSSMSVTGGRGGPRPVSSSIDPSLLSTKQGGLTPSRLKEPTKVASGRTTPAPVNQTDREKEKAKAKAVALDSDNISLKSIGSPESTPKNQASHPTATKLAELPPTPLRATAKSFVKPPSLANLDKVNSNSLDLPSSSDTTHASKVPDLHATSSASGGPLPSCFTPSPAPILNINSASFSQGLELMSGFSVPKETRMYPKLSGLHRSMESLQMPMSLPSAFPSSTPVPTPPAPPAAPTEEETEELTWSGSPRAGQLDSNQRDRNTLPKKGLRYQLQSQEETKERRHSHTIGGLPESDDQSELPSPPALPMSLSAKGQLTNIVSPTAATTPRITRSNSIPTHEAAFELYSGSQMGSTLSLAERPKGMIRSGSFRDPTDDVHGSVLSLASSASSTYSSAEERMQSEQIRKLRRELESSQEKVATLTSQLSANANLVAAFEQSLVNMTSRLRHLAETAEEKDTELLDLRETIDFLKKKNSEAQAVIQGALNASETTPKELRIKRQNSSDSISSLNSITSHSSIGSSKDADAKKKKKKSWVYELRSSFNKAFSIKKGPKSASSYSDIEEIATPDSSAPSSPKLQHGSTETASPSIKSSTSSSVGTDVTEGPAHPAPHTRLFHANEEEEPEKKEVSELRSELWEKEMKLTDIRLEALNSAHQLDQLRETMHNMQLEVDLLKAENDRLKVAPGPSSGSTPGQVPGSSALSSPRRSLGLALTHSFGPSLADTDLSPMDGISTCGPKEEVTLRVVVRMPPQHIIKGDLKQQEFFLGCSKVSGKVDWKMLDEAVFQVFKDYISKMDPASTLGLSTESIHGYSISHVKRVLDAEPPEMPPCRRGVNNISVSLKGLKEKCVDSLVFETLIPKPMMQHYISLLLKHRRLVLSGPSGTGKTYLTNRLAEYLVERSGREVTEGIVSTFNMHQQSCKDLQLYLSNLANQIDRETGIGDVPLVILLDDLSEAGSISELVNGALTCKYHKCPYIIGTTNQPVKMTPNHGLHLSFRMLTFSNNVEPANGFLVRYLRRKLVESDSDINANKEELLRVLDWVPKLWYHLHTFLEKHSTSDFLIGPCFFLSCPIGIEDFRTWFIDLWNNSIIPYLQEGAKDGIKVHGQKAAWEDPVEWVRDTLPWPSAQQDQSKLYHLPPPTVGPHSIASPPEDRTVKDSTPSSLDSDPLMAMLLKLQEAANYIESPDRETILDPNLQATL
# UniProt O43676, whole entry: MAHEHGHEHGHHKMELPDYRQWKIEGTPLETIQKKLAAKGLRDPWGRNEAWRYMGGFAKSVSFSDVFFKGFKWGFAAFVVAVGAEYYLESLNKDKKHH
# Where “and” joins values, the source holds several entries; their conditions need not be identical. Equal entries are not always repeated. The list shows a part of the results. For some assays here: The source does not settle which construct or isoform was used.
# Columns and labels:
# Test in all cases: protein microarray (ProtoArray v5.0), streptavidin-Alexa Fluor 647
# Settings in all cases: 3'-biotin; 20 mM Tris (pH 7.5), 5 mM MgCl2, 100 mM KCl, 0.1% Tween-20, A/T-rich and random oligonucleotide blockers; temperature not stated; high values mean tight binding
# NAPRT1 (human) = test system: NAPRT1 (human)
# NASP (human) = test system: NASP (human)
# NAV1 = NAV1 (UniProt Q8NEY1)
# NBPF1 (human) = test system: NBPF1 (human)
# NBPF22P (human) = test system: NBPF22P (human)
# NDRG2 (human) = test system: NDRG2 (human)
# NDRG4 (human) = test system: NDRG4 (human)
# NDUFA4 (human) = test system: NDUFA4 (human)
# NDUFA5 (human) = test system: NDUFA5 (human)
# NDUFB1 (human) = test system: NDUFB1 (human)
# NDUFB10 (human) = test system: NDUFB10 (human)
# NDUFB3 = NDUFB3 (UniProt O43676)
# [1] = test system: NEDD8-activating enzyme E1 catalytic subunit (human)
# NETO1 (human) = test system: NETO1 (human)
# NFKBIB (human) = test system: NFKBIB (human)
# [2] = test system: NFU1 iron-sulfur cluster scaffold homolog, mitochondrial (human)
# NINJ1 (human) = test system: NINJ1 (human)
# NINJ2 (human) = test system: NINJ2 (human)
# NIPSNAP3B (human) = test system: NIPSNAP3B (human)
# NIT2 (human) = test system: NIT2 (human)
sequence,measurement,setting,value
GGGGACAGGGGTATGGGGAGGGG [G4-3 biotinylated (CtG)],binding signal,NAPRT1 (human),-0.331 z-score
same,binding signal,NASP (human),-0.332 z-score
same,binding signal,NAV1,-0.33 z-score
same,binding signal,NBPF1 (human),-0.337 z-score
same,binding signal,NBPF22P (human),-0.34 z-score
same,binding signal,NDRG2 (human),-0.309 z-score
same,binding signal,NDRG4 (human),-0.335 z-score and -0.343 z-score
same,binding signal,NDUFA4 (human),-0.304 z-score
same,binding signal,NDUFA5 (human),-0.341 z-score
same,binding signal,NDUFB1 (human),-0.327 z-score
same,binding signal,NDUFB10 (human),-0.315 z-score
same,binding signal,NDUFB3,-0.32 z-score
same,binding signal,[1],-0.334 z-score
same,binding signal,NETO1 (human),-0.325 z-score
same,binding signal,NFKBIB (human),-0.335 z-score
same,binding signal,[2],-0.336 z-score
same,binding signal,NINJ1 (human),-0.297 z-score
same,binding signal,NINJ2 (human),-0.32 z-score
same,binding signal,NIPSNAP3B (human),-0.322 z-score
same,binding signal,NIT2 (human),-0.33 z-score

# 2 records drawn at random from those above, as already listed:
sequence,measurement,setting,value
GGGGACAGGGGTATGGGGAGGGG [G4-3 biotinylated (CtG)],binding signal,NETO1 (human),-0.325 z-score
same,binding signal,NDUFA4 (human),-0.304 z-score
